# Where a name gives a salt, the structure may show the parent alone. The list shows a part of the results. Single values are uncertain here, since repeats match poorly.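 Cells: ReNCell VM human fetal ventral-midbrain neural progenitors, differentiated mitogen-free. Blinded raters compared doublecortin-stained (early neurons) or tyrosine hydroxylase-stained (dopaminergic neurons) images with untreated wells, where 0 means no change. After repeats and both raters were averaged, compounds scoring 2 or above became hits for retesting.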
# Assays:
# ReNCell VM [1] = assay: neuronal differentiation score (DCX+ cell fraction vs untreated, manual image score) (score (-3 to 3)); higher = more neuronal differentiation; conditions: 2 uM, 2 weeks
# ReNCell VM [2] = assay: dopaminergic neuron differentiation score (TH+ cell fraction vs untreated, manual image score) (score (0 to 3)); higher = more TH+ dopaminergic neuron differentiation; conditions: 2 uM, 4 weeks, BDNF 10 ng/ml + GDNF 10 ng/ml
smiles,measurement,setting,value
CN(C)CCOC(C)(c1ccccc1)c1ccccn1 (configuration not stated) [Doxylamine succinate],neuronal differentiation score,ReNCell VM [1]; library: LOPAC,inactive: 0
same,neuronal differentiation score,ReNCell VM [1]; library: Prestwick,inactive: 0
same,dopaminergic neuron differentiation score,ReNCell VM [2]; library: LOPAC,inactive: 0
same,dopaminergic neuron differentiation score,ReNCell VM [2]; library: Prestwick,inactive: 0
Cc1ccc(S(=O)(=O)/C=C/C#N)cc1,neuronal differentiation score,ReNCell VM [1]; library: LOPAC,inactive: 0
same,neuronal differentiation score,ReNCell VM [1]; library: Tocriscreen,inactive: 0
same,dopaminergic neuron differentiation score,ReNCell VM [2]; library: LOPAC,inactive: 0
same,dopaminergic neuron differentiation score,ReNCell VM [2]; library: Tocriscreen,inactive: 0
COc1ccc(CCn2nnnc2C2(c3ccc(C)cc3)CC2)cc1 [Mephetyl tetrazole],neuronal differentiation score,ReNCell VM [1]; library: LOPAC,inactive: 0
same,dopaminergic neuron differentiation score,ReNCell VM [2]; library: LOPAC,inactive: 0
CNS(=O)(=O)Cc1ccc2[nH]cc(CCN(C)C)c2c1 [Sumatriptan succinate],neuronal differentiation score,ReNCell VM [1]; library: Prestwick,inactive: 0
same,neuronal differentiation score,ReNCell VM [1]; library: Tocriscreen,inactive: 0
same,dopaminergic neuron differentiation score,ReNCell VM [2]; library: Prestwick,inactive: 0
same,dopaminergic neuron differentiation score,ReNCell VM [2]; library: Tocriscreen,inactive: 0
OCCN1CCN(CCCN2c3ccccc3C=Cc3ccccc32)CC1 [Opipramol dihydrochloride],neuronal differentiation score,ReNCell VM [1]; library: LOPAC,inactive: 0
same,neuronal differentiation score,ReNCell VM [1]; library: Prestwick,inactive: 0
same,dopaminergic neuron differentiation score,ReNCell VM [2]; library: LOPAC,inactive: 0
same,dopaminergic neuron differentiation score,ReNCell VM [2]; library: Prestwick,inactive: 0
CC(C)NCC(O)c1ccc(O)c(O)c1 (configuration not stated),neuronal differentiation score,ReNCell VM [1]; library: Spectrum,active: 3
same,dopaminergic neuron differentiation score,ReNCell VM [2]; library: Spectrum,inactive: 0
CO[C@H]1C[C@H](O[C@H]2[C@H](C)[C@@H](O[C@@H]3O[C@H](C)C[C@H](N(C)C)[C@H]3O)[C@@H](C)C[C@@]3(CO3)C(=O)[C@H](C)[C@@H](O)[C@@H](C)[C@@H](C)OC(=O)[C@@H]2C)O[C@@H](C)[C@@H]1O,neuronal differentiation score,ReNCell VM [1]; library: Spectrum,inactive: 0
same,dopaminergic neuron differentiation score,ReNCell VM [2]; library: Spectrum,inactive: 0
N=C(N)SCCc1c[nH]cn1 [Imetit dihydrobromide],neuronal differentiation score,ReNCell VM [1]; library: LOPAC,inactive: 0
same,neuronal differentiation score,ReNCell VM [1]; library: Tocriscreen,inactive: 0
same,dopaminergic neuron differentiation score,ReNCell VM [2]; library: LOPAC,inactive: 0
same,dopaminergic neuron differentiation score,ReNCell VM [2]; library: Tocriscreen,inactive: 0
COC1=C(O)C(=O)c2c(cc3oc(C(C)=O)c(O)c3c2O)C1=O,neuronal differentiation score,ReNCell VM [1]; library: Spectrum,inactive: 0
same,dopaminergic neuron differentiation score,ReNCell VM [2]; library: Spectrum,inactive: 0
C[C@]12C[C@H](O)[C@H]3[C@@H](CCC4=CC(=O)CC[C@@]43C)[C@@H]1CC[C@@H]2C(=O)CO [Corticosterone],neuronal differentiation score,ReNCell VM [1]; library: LOPAC,inactive: 0
same,neuronal differentiation score,ReNCell VM [1]; library: Prestwick,inactive: 0
same,dopaminergic neuron differentiation score,ReNCell VM [2]; library: LOPAC,active: 3
same,dopaminergic neuron differentiation score,ReNCell VM [2]; library: Prestwick,inactive: 0

# Random excerpt: 2 records from the list, in no set order.
smiles,measurement,setting,value
Cc1ccc(S(=O)(=O)/C=C/C#N)cc1,dopaminergic neuron differentiation score,ReNCell VM [2]; library: LOPAC,inactive: 0
N=C(N)SCCc1c[nH]cn1 [Imetit dihydrobromide],neuronal differentiation score,ReNCell VM [1]; library: LOPAC,inactive: 0

# From the supplement of paper PMC4635364
